Data on 2 sequences can be found in publication PMC9018821.

Sequences of proteins named here, by UniProt entry; tags and fusion partners are left off. Residues count along the entry.
UniProt O09100, 289-480 T354M: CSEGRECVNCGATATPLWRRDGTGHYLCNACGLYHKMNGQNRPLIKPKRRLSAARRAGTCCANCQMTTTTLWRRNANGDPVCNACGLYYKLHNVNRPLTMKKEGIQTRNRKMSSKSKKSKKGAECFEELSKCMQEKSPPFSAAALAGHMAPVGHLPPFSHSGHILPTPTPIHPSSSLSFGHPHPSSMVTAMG
UniProt O09100, 289-480: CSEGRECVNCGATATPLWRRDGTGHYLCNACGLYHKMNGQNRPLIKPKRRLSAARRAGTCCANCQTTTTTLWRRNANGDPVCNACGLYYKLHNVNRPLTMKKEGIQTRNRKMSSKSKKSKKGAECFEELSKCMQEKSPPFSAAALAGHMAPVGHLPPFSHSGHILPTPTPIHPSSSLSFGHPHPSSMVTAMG
UniProt O09100, 289-480 R398W: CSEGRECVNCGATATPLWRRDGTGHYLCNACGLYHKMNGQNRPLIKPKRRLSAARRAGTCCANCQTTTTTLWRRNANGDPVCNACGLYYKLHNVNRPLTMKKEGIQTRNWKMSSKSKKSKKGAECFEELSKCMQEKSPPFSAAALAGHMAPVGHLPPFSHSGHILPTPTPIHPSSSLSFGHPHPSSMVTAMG

What all share (assay): SPR
(In general: Surface plasmon resonance follows binding to a sensor surface in real time, without labels.)

One data set has as its system G2WT + G2T354M. To be noted: 1:1 mixture, Biacore X100, Sensor chip SA, 1000 RU biotinylated dsDNA, blank reference cell, pH and temperature not stated, recombinant protein, label: 5'-biotin on sense strand.
A further data set deals with G2T354M (mouse) (UniProt O09100). The conditions noted are these: text says KD 'lower', binding described as weak, Biacore X100, Sensor chip SA, 1000 RU biotinylated dsDNA, blank reference cell, pH and temperature not stated, recombinant protein, residues 289-480, label: 5'-biotin on sense strand, scale: fold weaker affinity than G2WT.
The target in another data set is G2WT (mouse) (UniProt O09100). To be noted: not in material, Biacore X100, Sensor chip SA, 1000 RU biotinylated dsDNA, blank reference cell, pH and temperature not stated, recombinant protein, residues 289-480, label: 5'-biotin on sense strand.
A further data set addresses G2R398W (mouse) (UniProt O09100). The conditions noted are these: text says KD 'lower', binding described as weak, Biacore X100, Sensor chip SA, 1000 RU biotinylated dsDNA, blank reference cell, pH and temperature not stated, recombinant protein, residues 289-480, label: 5'-biotin on sense strand, scale: fold weaker affinity than G2WT.
A further data set has as its system G2WT + G2R398W. The conditions noted are these: 1:1 mixture, Biacore X100, Sensor chip SA, 1000 RU biotinylated dsDNA, blank reference cell, pH and temperature not stated, recombinant protein, label: 5'-biotin on sense strand.

The exact form of at least one protein or probe is not confirmed. For some of these results: Whether high values mean tight binding is not given here for every scale. A value given as a limit tells only on which side of the number the result lay.

In the case of “GCGAGATAAGATAAGGCCTTG (double strand) [tandem GATA motif 21-mer]”, the binding signal (fold increase of KD1 vs G2WT homodimer) with G2WT + G2T354M (first phase, ka1 1.3-fold down, kd1 2-fold up) was found to be 3; with G2WT + G2R398W (first phase, ka1 2.3-fold down, kd1 1.7-fold up), 4. In addition, the binding signal came out at 2.5 with G2T354M (mouse) and 8 in the data set with G2R398W (mouse). Further, in the data set with G2WT (mouse) (bivalent two-phase binding, KD in figure table), the binding result is listed as “binds”.

Regarding “GCGCTCAGAGATAAGGCCTTG (double strand) [single GATA motif 21-mer]”, the binding signal (fold KD difference from G2WT alone) in the data set on G2WT + G2T354M (monovalent fit) and with G2WT + G2R398W (monovalent fit) was < 2 throughout. Further, the binding signal with G2T354M (mouse) was found to be 4; with G2R398W (mouse), 10. In the data set with G2WT (mouse) (KD in Fig. 7b table, monovalent fit), the binding result is recorded as “binds”.
